Several values for one entry are separate records, joined by “and”; a condition that tells them apart may be missing. Equal entries are not always repeated. Some of the results follow. Further columns of the screen follow, without active or inactive calls. Compounds called inactive in the main read-out are mostly missing here. Potencies come from curve fits of mixed quality, noted in brackets.
Assay: qHTS Assay to Find Inhibitors of Chronic Active B-Cell Receptor Signaling
Conditions: ABC-DLBCL IkBa-CBG/CBR reporter, luminescence ratio (green luciferase fused to IkBa over red control in TMD8 lymphoma cells), 4 h
Outline: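 Doxycycline induced both beetle luciferases in TMD8 lymphoma cells; IKK-driven degradation limits the IkappaBalpha-fused green signal, while red luminescence normalises for cell number and nonspecific effects. Compounds tested up to 46 uM, 4 hrs.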

[1] = measured here: CBR red luminescence, cell number
[2] = measured here: IkBa-CBG green luminescence

| SMILES | AC50 [1] | AC50 [2] |
| --- | --- | --- |
| Cc1cccc(NC(=O)c2cc(-c3cc(C)cc(C)c3O)n[nH]2)c1 | 1.41 µM [falling, partial curve, poor fit] | – |
| CC(=O)CCc1ccc(OCCCCN2CCC(Cc3ccccc3)CC2)cc1 | 35.5 µM [falling, single point] | – |
| CC(C)(C)OC(=O)NCCCCCc1nnc(SCC(N)=O)o1 | 3.55 µM [rising, single point] | – |
| OCC1(CCOc2ccccc2)CCN(C2Cc3ccccc3C2)CC1 | 3.16 µM [rising, full curve, poor fit] | – |
| COc1ccccc1OCCNC(=O)c1ccc(C)c(S(=O)(=O)N2CCOCC2)c1 | 29.1 µM [falling, single point] | – |
| COc1c(Cl)ccc(Cl)c1C(=O)OCC(=O)O | 35.5 µM [rising, single point] | – |
| CCCCN(CC)CCNC(=O)Cn1cc2c(n1)-c1c(oc(C(=O)N3CCCC3)c1C)CC2 | 7.08 µM [falling, full curve, poor fit] | – |
| O=C(Nc1ccc(OC(F)F)cc1)c1cc(S(=O)(=O)N2CCOCC2)ccc1F | 20 µM [falling, partial curve, poor fit] | – |
| O=c1[nH]c2cc3c(cc2cc1CN(Cc1cccs1)Cc1nnnn1Cc1ccco1)OCCO3 | 17.8 µM [falling, partial curve, poor fit] | – |
| Cc1c(Cl)cccc1N/C(=N/S(=O)(=O)c1cccs1)c1ccccc1 | 35.5 µM [falling, single point] | – |
| COc1ccc(/C=N/NC(=O)C(Cc2c[nH]c3ccccc23)NC(=O)OCC(C)C)cc1[N+](=O)[O-] (centres undefined) | 15.8 µM [rising, partial curve, poor fit] | – |
| CCOc1ccc(C(=O)Nc2cccc(C(=O)O)c2)cc1Cl | 11.2 µM [falling, partial curve] | – |
| Cc1ccc(NC(=O)Nc2nnc(-c3ccccc3F)s2)cc1 | 10 µM [rising, partial curve] | – |
| COc1ccc(C2=Nn3c(nnc3-c3ccccc3OC)SC2)cc1OC | 3.26 µM [rising, full curve] and 1.41 µM [rising, full curve] | 3.66 µM [falling, full curve] and 1.26 µM [falling, full curve] |
| C[C@@]12C(=O)N(Cc3ccccc3)CC(=O)N1[C@H]1c3cc(Cl)ccc3OC[C@@H]1[C@@H]2c1ccccc1 | 3.66 µM [falling, full curve] | – |
| Cc1ccc(NC(=O)CN2C(=O)NC(Cc3c[nH]c4ccccc34)C2=O)cc1S(=O)(=O)N1CCCCC1 (centres undefined) | 25.9 µM [falling, single point] | – |
| O=c1c(Cc2ccccc2O)c(O)nc2n1CCCS2 | 8.2 µM [falling, partial curve, poor fit] | – |
| Cc1cncn1CCc1nc2c3ccccc3nc(SCC(=O)Nc3cccc(Cl)c3)n2n1 | 29.1 µM [falling, single point] and 17.8 µM [falling, single point] | – |
| CCCOc1ccc(N2C(=O)CC(N(Cc3ccco3)C(=O)CCC(=O)O)C2=O)cc1 (centres undefined) | 3.55 µM [falling, partial curve] | – |
| Cc1nc(SCC(=O)Nc2ccccc2Cl)oc1C | 2.82 µM [falling, partial curve, poor fit] | – |
| CCc1nnc(NC(=O)CSc2nnc(-c3ccoc3C)n2-c2ccc(C)cc2)s1 | 16.4 µM [falling, single point] | – |

| SMILES | AC50 [1] | AC50 [2] |
| --- | --- | --- |
| Cc1cccn2cc(CSc3nnc(Nc4ccc(C(C)C)cc4)s3)nc12 | 0.651 µM [rising, full curve] | – |
| COc1ccccc1C(=O)N(Cc1ccco1)C1CCS(=O)(=O)C1 (centres undefined) | 0.231 µM [falling, full curve, poor fit] | – |
| CCN1C(=O)/C(=C\N2CCN(c3cccc(Cl)c3)CC2)SC1=S | 35.5 µM [rising, single point] | – |
| CCCOC(=O)Nc1sc2c(c1C(N)=O)CCCC2 | 17.8 µM [rising, partial curve, poor fit] | – |
| O=C(O)/C=C/C(=O)Nc1ccc(-n2nccc2C(F)(F)F)cc1 | 3.98 µM [rising, single point] | – |
| COc1ccc(-c2cn(-c3ccc(C)cc3C)c(=S)[nH]2)cc1OC | 1.26 µM [falling, full curve, poor fit] | – |
| CCC(OC(=O)c1nsc(Cl)c1Cl)C(=O)NC(C)(C)CC (centres undefined) | 0.316 µM [falling, full curve, poor fit] | – |
| COc1ccc(OC)c(NC(=O)c2c(NCc3cccs3)sc3c2CCCC3)c1 | 3.98 µM [rising, single point] | – |
| C/C(CC(=O)Nc1cc(Cl)ccc1Cl)=N\NC(N)=S | 35.5 µM [rising, single point] | 35.5 µM [falling, single point] |
| O=C(NCc1ccc(F)cc1)c1ccccc1OCc1ccccc1 | 0.58 µM [falling, full curve] | – |
| COc1ccccc1OCCOc1ccc(/C=C2\C(=N)N3N=C(C)SC3=NC2=O)cc1 | 4.47 µM [rising, partial curve, poor fit] | – |
| Cc1c(Cl)cccc1NC(=O)CNC(=O)c1ccccc1F | 6.51 µM [rising, single point] | – |
| O=C(CCC(=O)N(CC(=O)NC1CCCCC1)c1ccccc1F)Nc1nccs1 | 3.55 µM [falling, full curve, poor fit] | – |
| COc1ccc(N2CC(C(=O)N3CCC(c4nc5ccccc5[nH]4)CC3)CC2=O)cc1 (centres undefined) | – | 3.66 µM [falling, partial curve, poor fit] |
| CCOc1cccc(/C=C/c2cc(C(=O)O)c3ccccc3n2)c1OC | 14.1 µM [falling, single point] | – |
| CCCCCCCCCC(=O)OCC(O)CO (centres undefined) | 0.291 µM [rising, full curve, poor fit] | – |
| CCn1cc(C(=O)NNC(=O)c2ccc(Cl)cc2)c(=O)c2ccc(C)nc21 | 3.98 µM [rising, full curve, poor fit] | – |
| Cc1ccccc1-c1nc(-c2ccc(NC(=O)c3ccc4c(c3)OCO4)cc2)no1 | 9.2 µM [falling, partial curve, poor fit] | – |
| Cn1c(=O)c(C(=O)Nc2ncccc2O)c(O)c2ccccc21 | 7.08 µM [falling, full curve] | – |
| N#Cc1ccc(Oc2cccnc2)cc1C#N | 0.58 µM [falling, full curve] | – |
| CC(=O)N1CCN(C(=O)CSc2cc(C)c(Br)cc2C)CC1 | 3.16 µM [rising, partial curve, poor fit] | – |

By substructure, the entries above with a thiophene ring, fused or not (four)

| SMILES | AC50 [1] | AC50 [2] |
| --- | --- | --- |
| O=c1[nH]c2cc3c(cc2cc1CN(Cc1cccs1)Cc1nnnn1Cc1ccco1)OCCO3 | 17.8 µM [falling, partial curve, poor fit] | – |
| Cc1c(Cl)cccc1N/C(=N/S(=O)(=O)c1cccs1)c1ccccc1 | 35.5 µM [falling, single point] | – |
| CCCOC(=O)Nc1sc2c(c1C(N)=O)CCCC2 | 17.8 µM [rising, partial curve, poor fit] | – |
| COc1ccc(OC)c(NC(=O)c2c(NCc3cccs3)sc3c2CCCC3)c1 | 3.98 µM [rising, single point] | – |

More results

| SMILES | AC50 [1] | AC50 [2] |
| --- | --- | --- |
| O=C(CCc1nnc(CCCCc2ccccc2)o1)N(CCO)Cc1ccccc1 | 3.16 µM [falling, partial curve, poor fit] | – |
| COc1cccc(NC(=O)CC(=O)c2ccc([N+](=O)[O-])cc2)c1 | 7.94 µM [falling, partial curve] | – |
| N#C/C(=C\c1coc2ccc(O)cc2c1=O)C(=O)Nc1nc2ccccc2s1 | 11.2 µM [falling, partial curve, poor fit] | – |
| O=C(O)c1cc(-c2ccc3ccccc3c2)nc2ccc(F)cc12 | 10 µM [falling, partial curve, poor fit] | – |
| CS(=O)(=O)Nc1ccc(C2=NN(C(=O)c3ccco3)C(c3ccccc3)C2)cc1 (centres undefined) | 1.3 µM [rising, partial curve] | – |
| Cc1ccc(/C=C/c2nc3ccccc3[nH]2)cc1 | 1.41 µM [falling, full curve] | – |
| COc1ccccc1Cn1c(=S)[nH]c2cc(C(=O)NCCN3CCOCC3)ccc2c1=O | 35.5 µM [falling, partial curve, poor fit] | – |
| CC(C)S(=O)(=O)c1cnc(-c2cccnc2)nc1N | 11.2 µM [rising, partial curve, poor fit] | – |
| CCn1c(C)nc2c(=O)oc3ccccc3c21 | 0.0092 µM [falling, full curve, poor fit] | – |
| CCCCn1c(=O)n(Cc2cccc(F)c2)c(=O)c2c1ncn2Cc1ccco1 | 2.59 µM [falling, full curve, poor fit] | – |
| Cc1ccc2nc(N3C(=O)C(O)=C(C(=O)c4ccco4)C3c3cccc(O)c3)sc2c1 (centres undefined) | 1.41 µM [falling, full curve] | – |
| Fc1c(F)c(F)c(N/N=C/c2c[nH]c3ccccc23)c(F)c1F | 29.1 µM [rising, single point] | – |
| O=C(/C=C/c1c(Cl)cccc1Cl)NCc1ccccc1 | 7.31 µM [rising, partial curve, poor fit] | – |
| Cc1ccc(CNC(=O)C2CC2c2ccccc2)cc1 (centres undefined) | 5.8 µM [rising, full curve] | – |
| COc1ccc(C/C(N)=N/OC(=O)Cc2ccccc2)cc1 | 7.94 µM [rising, partial curve] | – |
| COc1ccc(C2=NS(=O)(=O)N(C)C(C(=O)N3CCCCC3)=C2)cc1OC | 5.01 µM [falling, partial curve, poor fit] | – |
| COc1cccc(C(=O)Nc2cccc(-c3ccc(N4CCOCC4)nn3)c2)c1OC | 14.6 µM [falling, single point] | – |
| Cc1cc(C(=O)NC2CCCc3c2cnn3-c2cccc(C)c2C)c(C)o1 (centres undefined) | 14.1 µM [falling, partial curve] | – |
| COc1ccc(N2CC(NC(=O)c3cc4ccccc4o3)CC2=O)cc1OC (centres undefined) | 22.4 µM [falling, single point] | – |
| CCc1cccc(NS(=O)(=O)c2c(C)nc3sc(CC)nn3c2=O)c1 | 0.631 µM [falling, full curve, poor fit] | – |
